The target of test [1] is untagged U2AF1 (residues 1-193, MBP cleaved) (human) (UniProt Q01081). The test is described as follows: SEC; subunits co-expressed in E. coli; sequential MBP-affinity and GST-affinity chromatography, GST cleaved (MBP cleaved too for the untagged heterodimer), then Superdex-200 in 150 mM NaCl, 25 mM HEPES pH 7.0, 20 uM ZnCl2, 3% glycerol, 0.5 mM TCEP, 0.5 mM DTT. In general terms: Size exclusion chromatography separates by hydrodynamic size, large species first.

Sequences of proteins named here, by UniProt entry; tags and fusion partners are left off. A change or cut given only in a name is not applied to a line headed by its entry.
UniProt P26368: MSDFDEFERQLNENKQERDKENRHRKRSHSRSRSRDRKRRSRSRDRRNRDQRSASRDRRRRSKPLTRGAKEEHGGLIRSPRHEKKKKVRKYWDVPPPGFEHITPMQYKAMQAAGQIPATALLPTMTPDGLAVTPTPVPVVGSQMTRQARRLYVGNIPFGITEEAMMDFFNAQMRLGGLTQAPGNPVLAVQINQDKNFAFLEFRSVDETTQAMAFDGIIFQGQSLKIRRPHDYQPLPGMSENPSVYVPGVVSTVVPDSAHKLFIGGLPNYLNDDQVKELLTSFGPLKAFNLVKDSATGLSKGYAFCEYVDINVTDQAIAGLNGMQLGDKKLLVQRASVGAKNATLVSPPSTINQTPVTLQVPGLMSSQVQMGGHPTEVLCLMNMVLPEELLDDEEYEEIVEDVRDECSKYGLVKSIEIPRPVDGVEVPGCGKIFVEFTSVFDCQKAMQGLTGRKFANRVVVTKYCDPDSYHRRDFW

Test [2] concerns the target T1, His6SumoMBP-U2AF1 (residues 1-188, C67S, C-terminal alanine) (human) (UniProt Q01081).
T1 sequence: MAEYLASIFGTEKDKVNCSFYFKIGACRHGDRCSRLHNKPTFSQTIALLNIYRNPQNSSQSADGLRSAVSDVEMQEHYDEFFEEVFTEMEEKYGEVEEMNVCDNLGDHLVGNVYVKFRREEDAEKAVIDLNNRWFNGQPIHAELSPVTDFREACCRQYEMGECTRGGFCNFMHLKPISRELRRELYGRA
The description is as above.

No constants are given. Whether binding was seen depends on the method and setting. A result given as binding can be weak or reduced; the word gives no strength. For some assays here: Tags and fused reporters may be left off the sequences shown.

In the case of “U2AF2 (residues 85 to the C-terminus) (from UniProt P26368) (domain or fragment)”, the binding entry in test [1] and in test [2] was “binds” in each case.

These data come from PMC7261175, “A splice site-sensing conformational switch in U2AF2 is modulated by U2AF1 and its recurrent myelodysplasia-associated mutation” (Nucleic Acids Research, 2019).
